# In the supplement of paper PMC4635364:
# Where a name gives a salt, the structure may show the parent alone. This is one part of the list. Single values are uncertain here, since repeats match poorly.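 Human fetal ventral-midbrain neural progenitor line ReNCell VM, differentiated without mitogens. Images stained for doublecortin (early neurons) or tyrosine hydroxylase (dopaminergic neurons) were scored by blinded raters against untreated wells (0 = no change). Repeats and both raters were averaged, and compounds averaging 2 or higher were picked as hits for retesting.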
# Assays:
# [1] = system: ReNCell VM; assay: neuronal differentiation score (DCX+ cell fraction vs untreated, manual image score) (score (-3 to 3)); higher = more neuronal differentiation; conditions: 2 uM, 2 weeks
# [2] = system: ReNCell VM; assay: dopaminergic neuron differentiation score (TH+ cell fraction vs untreated, manual image score) (score (0 to 3)); higher = more TH+ dopaminergic neuron differentiation; conditions: 2 uM, 4 weeks, BDNF 10 ng/ml + GDNF 10 ng/ml
structure (smiles),measurement,setting,value
C#CC(C)(O)CC (stereo not given),neuronal differentiation score,[1]; library: Spectrum,inactive: 0
same,dopaminergic neuron differentiation score,[2]; library: Spectrum,inactive: 0
CCCn1c(C)c(C(=O)c2cccc3ccccc23)c2ccccc21,neuronal differentiation score,[1]; library: LOPAC,inactive: 0
same,dopaminergic neuron differentiation score,[2]; library: LOPAC,inactive: 1
CC(=O)O[C@H]1C(=O)[C@@]2(C)[C@H]([C@H](OC(=O)c3ccccc3)[C@]3(O)C[C@H](O)C(C)=C1C3(C)C)[C@]1(OC(C)=O)CO[C@@H]1C[C@@H]2O,neuronal differentiation score,[1]; library: Spectrum,inactive: 0
same,dopaminergic neuron differentiation score,[2]; library: Spectrum,inactive: 0
CC(C)[N+](C)(CCC(C(N)=O)(c1ccccc1)c1ccccc1)C(C)C,neuronal differentiation score,[1]; library: Spectrum,inactive: 1
same,dopaminergic neuron differentiation score,[2]; library: Spectrum,inactive: 0
Cc1ncsc1CCCl [Chlormethiazole hydrochloride],neuronal differentiation score,[1]; library: Tocriscreen,inactive: 0
same,dopaminergic neuron differentiation score,[2]; library: Tocriscreen,inactive: 0
CC(N)C(O)c1ccccc1 (stereo not given) [Phenylpropanolamine hydrochloride],neuronal differentiation score,[1]; library: Prestwick,inactive: 0
same,dopaminergic neuron differentiation score,[2]; library: Prestwick,inactive: 0
C[C@H](N)Cc1cnc[nH]1 [(S)-(+)-a-Methylhistamine dihydrobromide],neuronal differentiation score,[1]; library: Tocriscreen,inactive: 0
same,dopaminergic neuron differentiation score,[2]; library: Tocriscreen,inactive: 0
NCC(CP(=O)(O)O)c1ccc(Cl)cc1 (stereo not given) [Phaclofen],neuronal differentiation score,[1]; library: LOPAC,inactive: 0
same,dopaminergic neuron differentiation score,[2]; library: LOPAC,inactive: 0
NC(=O)CN1CCCC1=O,neuronal differentiation score,[1]; library: Spectrum,inactive: 0
same,dopaminergic neuron differentiation score,[2]; library: Spectrum,inactive: 0
CC(CCc1ccccc1)NC(C)C(O)c1ccc(O)cc1 (stereo not given),neuronal differentiation score,[1]; library: Spectrum,inactive: 0
same,dopaminergic neuron differentiation score,[2]; library: Spectrum,inactive: 0
NCCc1c[nH]c2ccc(O)cc12 [Serotonin],neuronal differentiation score,[1]; library: Tocriscreen,inactive: 0
same,dopaminergic neuron differentiation score,[2]; library: Tocriscreen,inactive: 0
C=C1C/C(=C/C)C(=O)O[C@@H]2CCN3CC=C(COC(=O)[C@]1(C)O)[C@H]23 [Seneciphylline],neuronal differentiation score,[1]; library: Phytochemical,inactive: 0
same,dopaminergic neuron differentiation score,[2]; library: Phytochemical,inactive: 0
COc1ccc2c(c1)[nH]c1c(C)nccc12 [harmine],neuronal differentiation score,[1]; library: Natural,inactive: 0
same,dopaminergic neuron differentiation score,[2]; library: Natural,inactive: 0
OC(Cc1ccncc1)C(Cl)(Cl)Cl (stereo not given),neuronal differentiation score,[1]; library: Tocriscreen,inactive: 0
same,dopaminergic neuron differentiation score,[2]; library: Tocriscreen,inactive: 0
CC(C)(C)NCC(O)c1ccccc1Cl (stereo not given),neuronal differentiation score,[1]; library: Spectrum,inactive: 0
same,dopaminergic neuron differentiation score,[2]; library: Spectrum,inactive: 0
CN1CCc2cc3c(c4c2C1Cc1ccccc1-4)OCO3 (stereo not given) [roemerine],neuronal differentiation score,[1]; library: Natural,inactive: 0
same,dopaminergic neuron differentiation score,[2]; library: Natural,inactive: 0
CC(C)N(CCC(C(N)=O)(c1ccccc1)c1ccccn1)C(C)C (stereo not given) [Disopyramide phosphate],neuronal differentiation score,[1]; library: LOPAC,inactive: 0
same,dopaminergic neuron differentiation score,[2]; library: LOPAC,inactive: 0
CC[C@]12C=CCN3CC[C@]4(C(=C(C(=O)OC)C1)Nc1ccccc14)[C@@H]32 [tabersonine],neuronal differentiation score,[1]; library: Natural,inactive: 0
same,dopaminergic neuron differentiation score,[2]; library: Natural,inactive: 0
C=C[C@]12CN(C)[C@@H]3[C@H]4CO[C@H](C[C@H]41)[C@]1(C(=O)Nc4ccccc41)[C@@H]32 [Gelsemine],neuronal differentiation score,[1]; library: Phytochemical,inactive: 0
same,dopaminergic neuron differentiation score,[2]; library: Phytochemical,inactive: 0
COc1ccc(C(=O)OC2C[C@H]3CC[C@@H](C2)N3C)cc1OC (stereo not given in full) [Convolamine hydrochloride],neuronal differentiation score,[1]; library: Phytochemical,inactive: 0
same,dopaminergic neuron differentiation score,[2]; library: Phytochemical,inactive: 0
CC(C)N(CCC(C(N)=O)(c1ccccc1)c1ccccn1)C(C)C (stereo not given),neuronal differentiation score,[1]; library: Spectrum,inactive: 0
same,dopaminergic neuron differentiation score,[2]; library: Spectrum,inactive: 0
"NCC(O)c1ccc(O)cc1 (racemic) [(+,-)-Octopamine hydrochloride]",neuronal differentiation score,[1]; library: Prestwick,inactive: 0
same,dopaminergic neuron differentiation score,[2]; library: Prestwick,inactive: 0
C/C=C(\C)C(=O)O[C@H]1C[C@@H](OC(C)=O)[C@@]2(C(=O)OC)CO[C@H]3[C@@H](O)[C@@](C)([C@]45O[C@@]4(C)[C@H]4C[C@@H]5O[C@@H]5OC=C[C@@]54O)[C@H]4[C@]1(CO[C@]4(O)C(=O)OC)[C@@H]32,neuronal differentiation score,[1]; library: Spectrum,inactive: 0
same,dopaminergic neuron differentiation score,[2]; library: Spectrum,inactive: 0
CC([C@H](O)c1ccccc1)N(C)C (stereo not given in full),neuronal differentiation score,[1]; library: Spectrum,inactive: 0
same,dopaminergic neuron differentiation score,[2]; library: Spectrum,inactive: 0
C[N+]1(C)[C@@H]2CC[C@H]1C[C@@H](OC(=O)C(CO)c1ccccc1)C2 (stereo not given in full) [Atropine methyl bromide],neuronal differentiation score,[1]; library: LOPAC,inactive: 0
same,dopaminergic neuron differentiation score,[2]; library: LOPAC,inactive: 0
O=C(O)CCC1NCC2CC1CN1CCCCC21 (stereo not given),neuronal differentiation score,[1]; library: Spectrum,inactive: 0
same,dopaminergic neuron differentiation score,[2]; library: Spectrum,inactive: 0
CNCCc1c[nH]c2ccc(O)cc12 [N-omega-Methyl-5-hydroxytryptamine oxalate salt],neuronal differentiation score,[1]; library: LOPAC,inactive: 0
same,dopaminergic neuron differentiation score,[2]; library: LOPAC,inactive: 0
CCC(=O)O[C@H]1CC[C@H]2[C@@H]3CCC4=CC(=O)CC[C@]4(C)[C@H]3CC[C@]12C [Testosterone propionate],neuronal differentiation score,[1]; library: Prestwick,inactive: 0
same,dopaminergic neuron differentiation score,[2]; library: Prestwick,inactive: 0
Oc1ccc(Cl)cc1Cc1cc(Cl)ccc1O,neuronal differentiation score,[1]; library: Spectrum,inactive: 0
same,dopaminergic neuron differentiation score,[2]; library: Spectrum,inactive: 1
CC(C)NCC(O)c1ccc(N)c(C#N)c1 (stereo not given) [Cimaterol],neuronal differentiation score,[1]; library: Tocriscreen,inactive: 0
same,dopaminergic neuron differentiation score,[2]; library: Tocriscreen,inactive: 0
COc1cc2c(c(OC)c1OC)-c1ccc(OC)c(=O)cc1[C@@H](NC(C)=O)CC2,neuronal differentiation score,[1]; library: Spectrum,inactive: 0
same,dopaminergic neuron differentiation score,[2]; library: Spectrum,inactive: 0
CCn1cnc2c(Nc3cccc(Cl)c3)nc(N[C@@H]3CCCC[C@@H]3N)nc21,neuronal differentiation score,[1]; library: LOPAC,inactive: 0
same,dopaminergic neuron differentiation score,[2]; library: LOPAC,inactive: 0
CC(C)(C)[C@]1(O)CC2OC(=O)CC23C(=O)OC2OC(=O)[C@H](O)C231 (stereo not given in full) [bilobalide],neuronal differentiation score,[1]; library: Natural,inactive: 0
same,dopaminergic neuron differentiation score,[2]; library: Natural,inactive: 0
CN(N=O)c1cc(O)ccc1O [Dephostatin],neuronal differentiation score,[1]; library: LOPAC,inactive: 0
same,dopaminergic neuron differentiation score,[2]; library: LOPAC,inactive: 0
C[C@]12CCC(=O)C=C1C=C[C@@H]1[C@@H]2CC[C@@]2(C)[C@H]1CC[C@@]2(O)CCC(=O)O [Canrenoic acid potassium salt],neuronal differentiation score,[1]; library: Prestwick,inactive: 0
same,dopaminergic neuron differentiation score,[2]; library: Prestwick,inactive: 0

# In another format: results already given.
structure (smiles)	measurement	setting	value
C#CC(C)(O)CC (stereo not given)	neuronal differentiation score	[1]; library: Spectrum	inactive: 0
same	dopaminergic neuron differentiation score	[2]; library: Spectrum	inactive: 0
NC(=O)CN1CCCC1=O	neuronal differentiation score	[1]; library: Spectrum	inactive: 0
CCC(=O)O[C@H]1CC[C@H]2[C@@H]3CCC4=CC(=O)CC[C@]4(C)[C@H]3CC[C@]12C [Testosterone propionate]	neuronal differentiation score	[1]; library: Prestwick	inactive: 0
